# Laboratory results as given in article PMC5646246, “Unraveling the Self-Assembly of the Pseudomonas aeruginosa XcpQ Secretin Periplasmic Domain Provides New Molecular Insights into Type II Secretion System Secreton Architecture and Dynamics” (mBio, 2017).
# Chains of the proteins cited; added tags and fusions are not shown. Residues count along the entry.
# UniProt Q51575, residues 56-235: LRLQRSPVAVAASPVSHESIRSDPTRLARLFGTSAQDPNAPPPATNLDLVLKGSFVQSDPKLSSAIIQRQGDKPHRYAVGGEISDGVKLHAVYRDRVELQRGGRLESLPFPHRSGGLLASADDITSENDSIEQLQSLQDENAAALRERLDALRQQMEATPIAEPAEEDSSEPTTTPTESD
# No constants are given. Whether binding was seen depends on the method and setting. Some binding calls cover weakened binding; strength is not graded here.
# B1: full-length XcpQ secretin (wild type) (protein, UniProt P35818 35-658)
# chain: ENSGGNAFVPAGNQQEAHWTINLKDADIREFIDQISEITGETFVVDPRVKGQVSVVSKAQLSLSEVYQLFLSVMSTHGFTVVAQGDQARIVPNAEAKTEAGGGQSAPDRLETRVIQVQQSPVSELIPLIRPLVPQYGHLAAVPSANALIISDRSANIARIEDVIRQLDQKGSHDYSVINLRYGWVMDAAEVLNNAMSRGQAKGAAGAQVIADARTNRLIILGPPQARAKLVQLAQSLDTPTARSANTRVIRLRHNDAKTLAETLGQISEGMKNNGGQGGEQTGGGRPSNILIRADESTNALVLLADPDTVNALEDIVRQLDVPRAQVLVEAAIVEISGDIQDAVGVQWAINKGGMGGTKTNFANTGLSIGTLLQSLESNKAPESIPDGAIVGIGSSSFGALVTALSANTKSNLLSTPSLLTLDNQKAEILVGQNVPFQTGSYTTNSEGSSNPFTTVERKDIGVSLKVTPHINDGAALRLEIEQEISALLPNAQQRNNTDLITSKRSIKSTILAENGQVIVIGGLIQDDVSQAESKVPLLGDIPLLGRLFRSTKDTHTKRNLMVFLRPTVVRDSAGLAALSGKKYSDIRVIDGTRGPEGRPSILPTNANQLFDGQAVDLRELMTE
# B2: XcpQ_(N012) (N0, N1 and N2 subdomains of the periplasmic N-terminal domain of the P. aeruginosa XcpQ secretin) (domain or fragment, Pseudomonas aeruginosa)
# chain: ENSGGNAFVPAGNQQEAHWTINLKDADIREFIDQISEITGETFVVDPRVKGQVSVVSKAQLSLSEVYQLFLSVMSTHGFTVVAQGDQARIVPNAEAKTEAGGGQSAPDRLETRVIQVQQSPVSELIPLIRPLVPQYGHLAAVPSANALIISDRSANIARIEDVIRQLDQKGSHDYSVINLRYGWVMDAAEVLNNAMSRGQAKGAAGAQVIADARTNRLIILGPPQARAKLVQLAQSLDTPTAR
# notes: XcpQ secretin of the Xcp type II secretion system, Pseudomonas aeruginosa; subdomains N0, N1 and N2; 26 kDa; the whole N domain covers residues 51 to 365; Found in solution as dimers (L) and dodecamers (H); also called matured XcpQ_(N012); untagged XcpQ_(N012)
# Tests used:
# [1] = target: full-length XcpQ secretin (wild type) (Pseudomonas aeruginosa) (UniProt P35818); test: immunoblot of samples under nondenaturing and reducing conditions; protein samples from P. aeruginosa strains producing full-length XcpQ or cysteine variants; assembled secretin channels detected
# [2] = target: soluble XcpP periplasmic domain (XcpPp) (Pseudomonas aeruginosa) (UniProt Q51575); test: BLI; sensor coupled to CbpD or to XcpPp; XcpQ_(N012) alone or the XcpQ_(N012)-vHH04 complex in solution; both purified
Binder,binding [1],binding [2]
B1,binds,–
B2,–,binds
